According to doi:10.1101/266833:
Results are given in words; binding and its absence hold for the method and conditions named. In cells and extracts the contact can be indirect. Here binding means that the protein was enriched with, or labelled near, the bait; the list need not be complete.

T1: Upf1-TAP (S. cerevisiae) (UniProt P30771)
T1 sequence: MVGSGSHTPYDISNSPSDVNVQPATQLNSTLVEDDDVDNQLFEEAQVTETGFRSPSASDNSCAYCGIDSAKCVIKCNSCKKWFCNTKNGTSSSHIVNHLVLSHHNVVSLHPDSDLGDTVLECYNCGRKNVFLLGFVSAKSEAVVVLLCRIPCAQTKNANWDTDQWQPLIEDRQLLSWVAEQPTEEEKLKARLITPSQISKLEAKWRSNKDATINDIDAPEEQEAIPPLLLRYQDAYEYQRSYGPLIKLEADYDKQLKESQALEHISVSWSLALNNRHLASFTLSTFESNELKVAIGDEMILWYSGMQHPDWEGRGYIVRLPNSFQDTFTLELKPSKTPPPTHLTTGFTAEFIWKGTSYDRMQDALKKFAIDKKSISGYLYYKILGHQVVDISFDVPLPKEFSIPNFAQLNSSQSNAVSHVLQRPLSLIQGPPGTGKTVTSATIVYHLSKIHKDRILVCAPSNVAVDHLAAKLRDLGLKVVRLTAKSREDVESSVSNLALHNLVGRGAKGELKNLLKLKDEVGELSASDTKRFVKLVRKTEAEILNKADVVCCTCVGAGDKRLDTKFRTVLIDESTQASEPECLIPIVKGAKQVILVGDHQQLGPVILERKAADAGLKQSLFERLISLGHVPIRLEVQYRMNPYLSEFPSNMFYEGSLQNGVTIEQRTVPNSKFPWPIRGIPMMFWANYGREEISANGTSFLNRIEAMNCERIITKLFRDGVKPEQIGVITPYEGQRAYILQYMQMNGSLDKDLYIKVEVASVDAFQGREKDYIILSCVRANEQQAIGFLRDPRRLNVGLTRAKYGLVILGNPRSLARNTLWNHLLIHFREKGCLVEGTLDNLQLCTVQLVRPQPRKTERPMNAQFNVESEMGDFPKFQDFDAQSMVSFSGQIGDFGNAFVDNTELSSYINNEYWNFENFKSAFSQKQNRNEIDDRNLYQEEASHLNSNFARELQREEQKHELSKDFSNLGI

T2: Dcp1-TAP (S. cerevisiae) (UniProt Q12517)
T2 sequence: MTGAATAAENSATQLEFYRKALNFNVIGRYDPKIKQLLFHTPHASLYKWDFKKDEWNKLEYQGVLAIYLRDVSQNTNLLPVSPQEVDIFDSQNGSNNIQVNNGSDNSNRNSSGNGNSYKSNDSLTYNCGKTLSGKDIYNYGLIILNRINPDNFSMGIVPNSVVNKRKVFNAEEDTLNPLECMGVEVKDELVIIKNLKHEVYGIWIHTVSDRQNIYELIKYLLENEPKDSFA

B1: Rbs1 (protein, UniProt Q05672 1-457)
chain: MTALDSRNWGLTPAMETGLFQKPQDRIFIIELENSIVSFINSNTESFQLRPMNSYYRLLSHQIAEYHNLNHVLARTQDSCVILFKGENFQKIEGKPLLQELQLNKKPEECASSSESIEKSNNNRIFRILKRKEVGNECDYKIDGNTRTPNSNLTANSNKDQKIEIDDKSSTDLEQERIEKERLYEQRKQEIFDKLNKSEDDVKSTNSSGSSDSDNEWSDWLNGDDSNTQTSNGSVSSSSPFNSSVTTIQVNKPQQQFYDSRRGRGGRRRGTNNYKDAYRGQSRRNKENGGYQSGYSSPYLVYPPPQMGGNSLPTYPLMYNPAGPAPGPAPSPMVMGNNTVFMNPYMYNMNPQGSCSFGTPIPMYPPYQYQYQYQYNTQYHSGPYSNTPSYNSNNYTRSSANKYHHFQGKNSYSGAIPKRSDDSNSNKNEGIRRASVEGSPSSRDTDSVEMKFDKLNI
B2: Gbp2 (protein, UniProt P25555 1-427)
chain: MERELGMYGNDRSRSRSPVRRRLSDDRDRYDDYNDSSSNNGNGSRRQRRDRGSRFNDRYDQSYGGSRYHDDRNWPPRRGGRGRGGSRSFRGGRGGGRGRTLGPIVERDLERQFDATKRNFENSIFVRNLTFDCTPEDLKELFGTVGEVVEADIITSKGHHRGMGTVEFTKNESVQDAISKFDGALFMDRKLMVRQDNPPPEAAKEFSKKATREEIDNGFEVFIINLPYSMNWQSLKDMFKECGHVLRADVELDFNGFSRGFGSVIYPTEDEMIRAIDTFNGMEVEGRVLEVREGRFNKRKNNDRYNQRREDLEDTRGTEPGLAQDAAVHIDETAAKFTEGVNPGGDRNCFIYCSNLPFSTARSDLFDLFGPIGKINNAELKPQENGQPTGVAVVEYENLVDADFCIQKLNNYNYGGCSLQISYARRD
B3: Sbp1 (protein, UniProt P10080 1-294)
chain: MSAEIEEATNAVNNLSINDSEQQPRAPTHKTVIDPEDTIFIGNVAHECTEDDLKQLFVEEFGDEVSVEIPIKEHTDGHIPASKHALVKFPTKIDFDNIKENYDTKVVKDREIHIKRARTPGQMQRGGFRGRGGFRGRGGFRGGFRGGYRGGFRGRGNFRGRGGARGGFNGQKREKIPLDQMERSKDTLYINNVPFKATKEEVAEFFGTDADSISLPMRKMRDQHTGRIFTSDSANRGMAFVTFSGENVDIEAKAEEFKGKVFGDRELTVDVAVIRPENDEEEIEQETGSEEKQE
B4: Lsm12 (protein, UniProt P38828 1-187)
chain: MSVSLEQTLGFRIKVTNVLDVVTEGRLYSFNSSNNTLTIQTTKKNQSPQNFKVIKCTFIKHLEVIGDKPSFNSFKKQQIKPSYVNVERVEKLLKESVIASKKKELLRGKGVSAEGQFIFDQIFKTIGDTKWVAKDIIILDDVKVQPPYKVEDIKVLHEGSNQSITLIQRIVERSWEQLEQDDGRKGG
B5: Lhp1 (protein, UniProt P33399 1-275)
chain: MSEKPQQEEQEKPQSRRNSFAVIEFTPEVLDRCLKQVEFYFSEFNFPYDRFLRTTAEKNDGWVPISTIATFNRMKKYRPVDKVIEALRSSEILEVSADGENVKRRVPLDLTAARNARIEQNQRTLAVMNFPHEDVEASQIPELQENLEAFFKKLGEINQVRLRRDHRNKKFNGTVLVEFKTIPECEAFLKSYSNDDESNEILSYEGKKLSVLTKKQFDLQREASKSKNFSGRSRSFNGHKKKNLPKFPKNKKKNGKEESKEDSSAIADDDEEHKE
B6: Rbg1 (protein, UniProt P39729 1-369)
chain: MSTTVEKIKAIEDEMARTQKNKATSFHLGQLKAKLAKLRRELLTSASSGSGGGAGIGFDVARTGVASVGFVGFPSVGKSTLLSKLTGTESEAAEYEFTTLVTVPGVIRYKGAKIQMLDLPGIIDGAKDGRGRGKQVIAVARTCNLLFIILDVNKPLHHKQIIEKELEGVGIRLNKTPPDILIKKKEKGGISITNTVPLTHLGNDEIRAVMSEYRINSAEIAFRCDATVDDLIDVLEASSRRYMPAIYVLNKIDSLSIEELELLYRIPNAVPISSGQDWNLDELLQVMWDRLNLVRIYTKPKGQIPDFTDPVVLRSDRCSVKDFCNQIHKSLVDDFRNALVYGSSVKHQPQYVGLSHILEDEDVVTILKK
B7: Pat1 (protein, UniProt P25644 1-796)
chain: MSFFGLENSGNARDGPLDFEESYKGYGEHELEENDYLNDETFGDNVQVGTDFDFGNPHSSGSSGNAIGGNGVGATARSYVAATAEGISGPRTDGTAAAGPLDLKPMESLWSTAPPPAMAPSPQSTMAPAPAPQQMAPLQPILSMQDLERQQRQMQQQFMNFHAMGHPQGLPQGPPQQQFPMQPASGQPGPSQFAPPPPPPGVNVNMNQMPMGPVQVPVQASPSPIGMSNTPSPGPVVGATKMPLQSGRRSKRDLSPEEQRRLQIRHAKVEKILKYSGLMTPRDKDFITRYQLSQIVTEDPYNEDFYFQVYKIIQRGGITSESNKGLIARAYLEHSGHRLGGRYKRTDIALQRMQSQVEKAVTVAKERPSKLKDQQAAAGNSSQDNKQANTVLGKISSTLNSKNPRRQLQIPRQQPSDPDALKDVTDSLTNVDLASSGSSSTGSSAAAVASKQRRRSSYAFNNGNGATNLNKSGGKKFILELIETVYEEILDLEANLRNGQQTDSTAMWEALHIDDSSYDVNPFISMLSFDKGIKIMPRIFNFLDKQQKLKILQKIFNELSHLQIIILSSYKTTPKPTLTQLKKVDLFQMIILKIIVSFLSNNSNFIEIMGLLLQLIRNNNVSFLTTSKIGLNLITILISRAALIKQDSSRSNILSSPEISTWNEIYDKLFTSLESKIQLIFPPREYNDHIMRLQNDKFMDEAYIWQFLASLALSGKLNHQRIIIDEVRDEIFATINEAETLQKKEKELSVLPQRSQELDTELKSIIYNKEKLYQDLNLFLNVMGLVYRDGEISELK
B8: Pby1 (protein, UniProt P38254 1-753)
chain: MRVLITNDDGPLSDQFSPYIRPFIQHIKRNYPEWKITVCVPHVQKSWVGKAHLAGKNLTAQFIYSKVDAEDNTFWGPFIQPQIRSENSKLPYVLNAEIPKDTIEWILIDGTPASCANIGLHLLSNEPFDLVLSGPNVGRNTSAAYITSSGTVGGAMESVITGNTKAIAISWAYFNGLKNVSPLLMEKASKRSLDVIKHLVKNWDPKTDLYSINIPLVESLSDDTKVYYAPIWENRWIPIFNGPHINLENSFAEIEDGNESSSISFNWAPKFGAHKDSIHYMDEYKDRTVLTDAEVIESEMISVTPMKATFKGVNHLLGELKLTEEENNLSKTNNLIVVSIDPMEYIYKPLTHALKKYLPQVEIVSNLPEFDNGGCEKEMKVFHYGDYEQLDMDKLMELPNNYFTNSYIYRKALIRKHFLSHTIQTYTAKNPESILKKAYLESFTIDLDYAEFLDDALDENWELRQELENESQDKWWIVKPSMSDKGQGIRVFKTIEDLQAIFDSFDDEDSEAEESGNDDDADDVNGEFMDNNKVNISQLRHFIIQEYLTNPLLLASMDNRKFHIRCYVVCRGDLQVFVYDRMLALFAAKPFVPLDPYAYSVTDLKDLECHLTNTCLQSKKKDKDSSVLEFDSIEEIPNERKSNIKEQIHSITNDVFLAAVNVNRLNFQPLPNAFETYGVDFLIDSNYEVKLLEINAFPDFKQTGKDLKNLIDELFDDTVKYCVTPIFNENRNKTDDETDPNFVKVIDYTSNGW

Each binder was assayed against T1, Upf1-TAP (S. cerevisiae) (assay: affinity purification with mass spectrometry).
With B1 the binding was “binds”. B2 was tested, and the binding was “binds”. For B3, the binding was “binds”. For B4, the binding was “binds”. In the case of B5, the binding is reported as “binds”. For B6, the binding was “binds”. B7 was tested, and the binding was “binds”.

What follows are binders tested against T2, Dcp1-TAP (S. cerevisiae) (assay: affinity purification with mass spectrometry).
B8 was tested, and the binding was “binds”.
